# PubChem BioAssay AID504793, Drosophila RNAi Screening Center | 2011
# Test: 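Whole-genome screen for parts of the DNA damage checkpoint at G2/M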 (primary screen)
# Cell system: Drosophila S2R+ cells
# Reagent: long dsRNA against Drosophila genes, about 0.25 µg dsRNA per well
# Time to read-out: 4 days of dsRNA, then 4 hours of drug before read-out
# Challenge: doxorubicin 0.5 µM for 4 hours to cause double-strand breaks, in cells also given a low, harmless dose of dsRNA against nbs to sensitise the assay
# Detection: 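Per-well count of mitotic cells stained for phospho-histone H3 after doxorubicin exposure, used as mitotic index; counts are raw and not normalised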
# Reading the numbers: mitotic cells: higher = more cells in mitosis, weaker G2 arrest
# Hit rule: 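a call needs confirmation in secondary tests, with other dsRNAs and a check of mitotic timing without damage, not just a high primary count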
# Meaning of the calls: active = confirmed in follow-up tests; inactive = not confirmed
# In all, the deposit lists about 23,000 reagents; shown is an unselected part of those that have a named target and a result. Over the whole deposit, 62 (0.27%) are marked active. 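Calls come from follow-up tests whose scores are not deposited, so confirmed genes may have low counts here; counts are not normalised per plate.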 The raw values are shown without normalisation. Names joined by + are all predicted targets of the reagent.
gene knocked down,dsRNA,"mitotic cells, replicate 1",Outcome
ZIPIC,DRSC16349,7,inactive
CG14011,DRSC02343,6,inactive
CG14011,DRSC27954,8,inactive
raskol,DRSC19202,21,inactive
raskol,DRSC19731,20,inactive
raskol,DRSC19964,3,inactive
raskol,DRSC21788,4,inactive
CG13766,DRSC02271,6,inactive
CG13766,DRSC29049,7,inactive
CG18659,DRSC06784,11,inactive
qua,DRSC03598,6,inactive
Dph4,DRSC12318,5,inactive
ouib,DRSC14376,6,inactive
Not1,DRSC06787,15,inactive
Not1,DRSC06794,13,inactive
Ir20a,DRSC20506,4,inactive
Gdap2,DRSC06789,5,inactive
Gdap2,DRSC06790,7,inactive
CG8565,DRSC20112,12,inactive
park + Targ3,DRSC11617,6,inactive
lectin-46Ca,DRSC06612,6,inactive
lectin-46Ca,DRSC25469,6,inactive
Sld5,DRSC14892,7,inactive
eco,DRSC11006,13,inactive
CG14570,DRSC11731,5,inactive
CG14570,DRSC24676,9,inactive
wapl,DRSC18851,10,inactive
wapl,DRSC27941,5,inactive
mRpL24,DRSC03113,8,inactive
RunxB,DRSC20395,7,inactive
RunxB,DRSC20525,11,inactive
RunxB,DRSC20526,6,inactive
RunxB,DRSC23150,15,inactive
RunxB,DRSC28799,4,inactive
eater,DRSC15969,10,inactive
eater,DRSC22254,5,inactive
eater,DRSC29945,8,inactive
lncRNA:CR30055,DRSC22439,13,inactive
lncRNA:CR30055,DRSC26506,13,inactive
Hip1,DRSC09812,4,inactive

9 of these entries, reformatted.
wapl [DRSC27941]
- mitotic cells, replicate 1: 5
- Outcome: inactive

mRpL24 [DRSC03113]
- mitotic cells, replicate 1: 8
- Outcome: inactive

RunxB [DRSC20395]
- mitotic cells, replicate 1: 7
- Outcome: inactive

RunxB [DRSC20525]
- mitotic cells, replicate 1: 11
- Outcome: inactive

RunxB [DRSC20526]
- mitotic cells, replicate 1: 6
- Outcome: inactive

RunxB [DRSC23150]
- mitotic cells, replicate 1: 15
- Outcome: inactive

RunxB [DRSC28799]
- mitotic cells, replicate 1: 4
- Outcome: inactive

eater [DRSC15969]
- mitotic cells, replicate 1: 10
- Outcome: inactive

eater [DRSC22254]
- mitotic cells, replicate 1: 5
- Outcome: inactive

Further entries follow:
gene knocked down,dsRNA,"mitotic cells, replicate 1",Outcome
CG10587,DRSC11627,3,inactive
CycH,DRSC11861,,inactive
CycH,DRSC21308,5,inactive
FeCH,DRSC16948,7,inactive
FeCH,DRSC27562,3,inactive
eEF1gamma,DRSC16659,5,inactive
eEF1gamma,DRSC23655,5,inactive
ND-B14.5B,DRSC00346,8,inactive
CenG1A,DRSC02538,4,inactive
CenG1A,DRSC03505,4,inactive
CenG1A,DRSC03506,4,inactive
CenG1A,DRSC28029,8,inactive
CG17329,DRSC01926,4,inactive
CG17329,DRSC28365,7,inactive
eIF1,DRSC08520,4,inactive
eIF1,DRSC30115,3,inactive
Sptz,DRSC15758,8,inactive
Sptz,DRSC27382,7,inactive
CG12645,DRSC17851,13,inactive
CG12645,DRSC24406,2,inactive
CG8132,DRSC16383,7,inactive
Cyp317a1,DRSC07366,7,inactive
papi,DRSC00693,4,inactive
CG11858,DRSC14412,11,inactive
CG11858,DRSC29222,5,inactive
CG11249,DRSC11645,5,inactive
CG13258,DRSC02244,3,inactive
Gr94a,DRSC13597,11,inactive
nod,DRSC18900,10,inactive
nod,DRSC20356,9,inactive
Pde11,DRSC02028,7,inactive
Pde11,DRSC02460,5,inactive
Pde11,DRSC26665,7,inactive
CG1750,DRSC15240,7,inactive
CG12783,DRSC14538,14,inactive
